# Data from PubChem BioAssay AID504467 (National Center for Advancing Translational Sciences (NCATS), 2011).
# Out of some 330,000 compounds screened, about 7,700 (2.3%) were called active. This list was built around the results that the source calls inconclusive (neither active nor inactive); the mix of calls is not that of the screen. Calls follow the shape of the dose curve; as a rule, active = well fitted inhibition curve with a large enough effect; inconclusive = small, poorly fitted or top-dose-only effect, or effect the other way; inactive = flat fitted curve, though single readings scatter. Where the call is inconclusive, the potency comes from a doubtful curve fit.
# Assay: qHTS screen for small molecules that inhibit ELG1-dependent DNA repair in human embryonic kidney (HEK293T) cells expressing luciferase-tagged ELG1; also: nearly all actives have a fitted effect of over 55% in size
# Settings: HEK293T ELG1-luciferase reporter, luminescence, 16 h, DNA damage induced by 5-fluorouridine; series mostly up to 46.1 µM
# Method in brief: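 5-Fluorouridine DNA damage + compound/DMSO, 2,000 cells/well, 16 h, 37 °C/5% CO2. ONE-Glo, 30 min RT, luminescence. Readout = decrease in reporter signal.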
# Potency is read from the fitted curve at half-maximal effect.
row,Compound,Potency
1,CN1/C(=C/c2cccc[n+]2C)Sc2ccccc21,"inconclusive: 0.92 µM [inhibitor, partial curve]"
2,C#CCN1C(=O)C(O)(c2c(C)[nH]c3ccccc23)c2ccccc21 (stereo not given),inactive
3,COc1ccc(CNC(=O)C(OC(=O)c2ccco2)c2ccccc2F)cc1 (stereo not given),"inconclusive: 20.6 µM [activator, partial curve]"
4,COc1cc(C2SCC(=O)N2Cc2ccccc2)ccc1O (stereo not given),inactive
5,CCCCOc1ccc(C(=O)NCC(=O)NCCOc2ccccc2)cc1,"inconclusive: 25.9 µM [activator, single point]"
6,N=C1/C(=C/c2cccn2Cc2ccc(F)cc2)C(=O)N=C2SC=CN12,inactive
7,O=C1C(Cl)=C(N2CCCC2)C(=O)N1c1ccc(F)cc1,inactive
8,CN(C)c1ccc(-c2nnc(SCC3CCCO3)n2C)cc1 (stereo not given),"inconclusive: 2.59 µM [activator, full curve]"
9,C/C(=N/N=C(/N)SCc1ccccc1)C(C)(C)C,"inconclusive: 20.6 µM [activator, single point]"
10,c1ccn2cc(C34CC5CC(CC(C5)C3)C4)nc2c1,inactive
11,C/C(N)=C(/C#N)C(=O)COC(=O)c1ccc(NC(N)=O)cc1,inactive
12,Cn1c(SCC2CCCCC2)nnc1-c1ccncc1,"inconclusive: 25.9 µM [activator, single point]"
13,Cc1cccc(NC(=O)c2nc(-c3ccccc3)n(-c3ccccc3)n2)c1C,"inconclusive: 20.6 µM [inhibitor, partial curve, poor fit]"
14,COc1ccc(CC(CN)c2ccccc2)cc1 (stereo not given),"inconclusive: 11.6 µM [inhibitor, partial curve, poor fit]"
15,CCOC(=O)N1CCN(C(=O)c2oc3ccc(S(=O)(=O)N4CCCCC4)cc3c2C)CC1,"inconclusive: 32.6 µM [inhibitor, single point]"
16,Cc1cc(C(=O)Nc2cc(Br)ccc2O)on1,inactive
17,CC[n+]1c(/C=C/Nc2ccccc2)oc2ccc(OC)cc21,"inconclusive: 18.3 µM [inhibitor, partial curve, poor fit]"
18,CCOCCCNC(=O)c1ccc2c(c1)ncn2-c1ccccc1OC,inactive
19,CCOC(=O)c1c(NC(=O)COC(=O)c2ccncc2)sc(C)c1C,"inconclusive: 13 µM [activator, partial curve, poor fit]"
20,NC(=O)c1c(NC(=O)CSc2nc(N)cc(=O)[nH]2)sc2c1CCCC2,"inconclusive: 29.1 µM [inhibitor, single point]"
21,COC(=O)c1cc(C(=O)c2ccc(Cl)cc2Cl)cn1C,inactive
22,Cc1ccc(CN2C(=O)C(CC(C)C)Nc3ncnc(N4CCN(c5ccccn5)CC4)c32)cc1 (stereo not given),"inconclusive: 20.6 µM [inhibitor, single point]"
23,CCCOC(=O)c1ccc(Oc2cn[nH]c2-c2ccc(OCC(=O)NN)cc2O)cc1,active: 18.3 µM
24,Cc1onc(-c2ccc(Cl)cc2)c1-c1ccnn1S(=O)(=O)c1ccc(Cl)cc1,active: 14.6 µM

row,Compound,Potency
1,C/C(=N\NC(=O)c1ccc(N2CCCC2=O)cc1)c1ccccc1,"inconclusive: 18.3 µM [activator, partial curve, poor fit]"
2,CN(C)C(=O)CSc1nc2ccccc2n1Cc1ccccc1,inactive
3,COc1ccc(Cl)cc1N1CCN(CCNC(=O)Nc2ccccc2C)CC1,inactive
4,COc1cc2nc(SCC(=O)NCCc3ccccc3)n(Cc3ccco3)c(=O)c2cc1OC,"inconclusive: 10.3 µM [inhibitor, single point]"
5,C=C(C)c1cccc(C(C)(C)NC(=O)N2CCCC(C)C2)c1 (stereo not given),inactive
6,Cc1ccc(NC(=O)Nc2ccccc2C(=O)NCc2ccccc2)cc1,"inconclusive: 16.4 µM [activator, single point]"
7,C/C(=N\NC(=S)NCc1ccccc1)c1ccc(Br)cc1,"inconclusive: 25.9 µM [inhibitor, single point]"
8,CCOc1cc(-c2nc(-c3ccccc3OC)no2)cc(OCC)c1OCC,"inconclusive: 9.2 µM [inhibitor, single point]"
9,CCOc1ccc(NC(=S)N2CCN(CCN3C(=O)c4cccc5cccc(c45)C3=O)CC2)cc1,inactive
10,COc1ccc(NC(=O)Cn2nnc(C(=O)NCc3cccs3)c2N)cc1OC,inactive
11,COc1ccccc1NS(=O)(=O)c1cccc(C(=O)NCC(c2ccco2)N2CCCCC2)c1 (stereo not given),"inconclusive: 4.11 µM [inhibitor, single point]"
12,COc1ccccc1-c1nnc(NC(C)=O)s1,"inconclusive: 5.8 µM [activator, single point]"
13,Cc1ccc(OCCCC(=O)Nc2ccc3c(c2)OCCO3)cc1,"inconclusive: 20.6 µM [activator, partial curve, poor fit]"
14,Cc1ccc(OCCSc2nc(N)cc(N)n2)cc1,"inconclusive: 14.6 µM [activator, partial curve]"
15,Cc1ccc(Nc2nc3nonc3[nH]c2=O)cc1,"inconclusive: 20.6 µM [activator, partial curve]"
16,CC(C)(C)c1ccc(NC(=O)c2c(F)cccc2Cl)cc1,"inconclusive: 25.9 µM [activator, partial curve, poor fit]"
17,COc1ccc(-c2cnn3c(N)c(S(=O)(=O)c4ccccc4)cnc23)cc1,inactive
18,CCc1cc(/C(Cc2ccc3ccccc3n2)=N\O)c(O)cc1O,"inconclusive: 5.8 µM [activator, single point]"
19,COc1ccc(C2C(=O)N(C3CCCCC3)CC(=O)N2CC2COc3ccccc3O2)cc1 (stereo not given),"inconclusive: 18.4 µM [inhibitor, partial curve]"
20,O=C1CC(Sc2ncccn2)C(=O)N1c1ccccc1C(F)(F)F (stereo not given),inactive
21,CCOc1ccc(Nc2nc(-c3cccnc3)cs2)cc1,"inconclusive: 2.59 µM [activator, full curve]"
22,Cc1ccc(-n2ncc3c2CC(C)(C)CC3NC(=O)c2cc[n+]([O-])cc2)cc1 (stereo not given),"inconclusive: 20.6 µM [activator, partial curve, poor fit]"
23,C/C(=N\NC(=O)c1ccc(N2CCCC2=O)cc1)c1ccncc1,"inconclusive: 4.11 µM [activator, single point]"
24,Clc1ccccc1OCc1nnc(-c2ccccc2Br)o1,"inconclusive: 11.6 µM [activator, partial curve]"

# Given with tabs: entries from further up
row	Compound	Potency
1	CN1/C(=C/c2cccc[n+]2C)Sc2ccccc21	inconclusive: 0.92 µM [inhibitor, partial curve]
2	C#CCN1C(=O)C(O)(c2c(C)[nH]c3ccccc23)c2ccccc21 (stereo not given)	inactive

# Gathered by group: the entries above containing a tert-butyl group.
row,Compound,Potency
9,C/C(=N/N=C(/N)SCc1ccccc1)C(C)(C)C,"inconclusive: 20.6 µM [activator, single point]"
16,CC(C)(C)c1ccc(NC(=O)c2c(F)cccc2Cl)cc1,"inconclusive: 25.9 µM [activator, partial curve, poor fit]"

# (continued)

row,Compound,Potency
1,COc1ccc(-c2nc(C#N)c(N3CCN(c4ccccc4)CC3)o2)cc1,inactive
2,COc1cccc(CNC(=O)CNC(=S)N(Cc2ccccc2)Cc2ccccc2F)c1,"inconclusive: 23.1 µM [inhibitor, single point]"
3,COc1ccc(NC(=O)CSc2nnc(-c3cccs3)n2N)c(OC)c1,inactive
4,Cc1cccc(N2CCN(C(=O)c3cc(=O)[nH]c4ccccc34)CC2)c1C,"inconclusive: 14.6 µM [inhibitor, partial curve, poor fit]"
5,Cc1ccc(-c2cc(-c3ccccc3Cl)c(C#N)c(N)n2)o1,"inconclusive: 20.6 µM [inhibitor, single point]"
6,CNC(=O)NNC(=O)c1nc(-c2ccccc2)c(C)o1,inactive
7,Cc1nnc(SCC(=O)N2CCN(c3ccccc3F)CC2)n1C1CC1,inactive
8,O=C(Nc1ccccc1N1CCOCC1)c1ccc(N2CCOCC2)c([N+](=O)[O-])c1,"inconclusive: 32.6 µM [inhibitor, partial curve, poor fit]"
9,O=C(c1cnn(-c2ccccc2)c1)c1ccccc1O,"inconclusive: 4.61 µM [activator, partial curve]"
10,COc1ccc(-c2nnc(SC(C)C(=O)Nc3ccc4c(c3)OCCO4)o2)cc1 (stereo not given),"inconclusive: 14.6 µM [activator, partial curve]"
11,CCn1c(=O)c2sccc2n2c(CCCC(=O)N3CCN(c4ccccn4)CC3)nnc12,inactive
12,c1cn2cc(-c3ccc4c(c3)OCO4)nc2s1,"inconclusive: 4.61 µM [activator, partial curve]"
13,CC1CC1C(=O)OCc1cc(=O)n2cc(Br)ccc2n1 (stereo not given),"inconclusive: 11.2 µM [activator, partial curve, poor fit]"
14,O=C1N=C(N2CCOCC2)S/C1=C/c1ccc(-c2ccc(F)cc2)o1,"inconclusive: 9.2 µM [inhibitor, partial curve]"
15,CC1CCCCC1NC(=O)/C(C#N)=C/C=C/c1ccccc1[N+](=O)[O-] (stereo not given),"inconclusive: 29.1 µM [inhibitor, single point]"
16,O=C(Cc1cccs1)N1CCC(c2nc3c(nnn3Cc3ccc(F)cc3)c(=O)[nH]2)CC1,"inconclusive: 29.1 µM [inhibitor, single point]"
17,O=C(NCCOc1ccccc1)c1ccc2n[nH]nc2c1,"inconclusive: 20.6 µM [activator, partial curve]"
18,S=C(Nc1ccccc1)N1CCC(C2CCN(C(=S)Nc3ccccc3)CC2)CC1,"inconclusive: 2.59 µM [activator, partial curve, poor fit]"
19,CC(C)(C)NC(=O)CSc1nnc(NC(=O)c2ccccc2Cl)s1,"inconclusive: 18.3 µM [activator, single point]"
20,O=c1[nH]c(CN2CCN(c3ccc(O)cc3)CC2)nc2scc(-c3ccc(Cl)cc3)c12,"inconclusive: 13 µM [inhibitor, partial curve, poor fit]"
21,O=C1C2C3C=CC(CC3)C2C(=O)N1c1ccc2c(c1)OCO2 (stereo not given),"inconclusive: 29.1 µM [activator, single point]"
22,C=CCn1c(CC(=O)OC)csc1=Nc1ccc(C(C)=O)cc1,"inconclusive: 11.2 µM [activator, partial curve, poor fit]"
